Data published in paper PMC10321276.
No constants are given. Whether binding was seen depends on the method and setting. Binding seen in cells or lysates may run through a third protein. Some binding calls cover weakened binding; strength is not graded here. For part of these data: Tags and fused reporters may be left off the sequences shown.

By UniProt entry, the sequences of proteins in these tests, tags left out.
UniProt Q9HCE7: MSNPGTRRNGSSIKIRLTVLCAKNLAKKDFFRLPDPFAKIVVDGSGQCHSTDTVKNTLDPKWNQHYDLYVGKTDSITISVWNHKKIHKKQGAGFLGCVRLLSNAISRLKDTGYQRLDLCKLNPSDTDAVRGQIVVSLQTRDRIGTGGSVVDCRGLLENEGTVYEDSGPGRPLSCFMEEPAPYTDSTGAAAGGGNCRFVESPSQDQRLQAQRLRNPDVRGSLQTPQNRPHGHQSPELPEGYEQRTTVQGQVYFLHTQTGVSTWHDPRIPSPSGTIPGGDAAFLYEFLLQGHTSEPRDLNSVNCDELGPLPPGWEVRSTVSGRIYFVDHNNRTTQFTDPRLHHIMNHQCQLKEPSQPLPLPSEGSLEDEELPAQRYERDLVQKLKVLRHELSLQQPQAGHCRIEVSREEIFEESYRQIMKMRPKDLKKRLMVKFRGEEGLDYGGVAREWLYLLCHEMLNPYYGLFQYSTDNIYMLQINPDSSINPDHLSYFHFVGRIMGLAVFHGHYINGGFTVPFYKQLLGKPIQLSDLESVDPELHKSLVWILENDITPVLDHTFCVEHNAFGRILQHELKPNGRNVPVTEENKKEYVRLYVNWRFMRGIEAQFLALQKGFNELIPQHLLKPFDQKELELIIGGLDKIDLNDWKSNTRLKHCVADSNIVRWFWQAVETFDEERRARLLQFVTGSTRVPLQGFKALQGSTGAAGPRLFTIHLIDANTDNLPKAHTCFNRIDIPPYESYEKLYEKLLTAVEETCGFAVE

B1: Flag-NADK (nicotinamide adenine dinucleotide kinase) (enzyme, UniProt O95544 1-446)
chain: MEMEQEKMTMNKELSPDAAAYCCSACHGDETWSYNHPIRGRAKSRSLSASPALGSTKEFRRTRSLHGPCPVTTFGPKACVLQNPQTIMHIQDPASQRLTWNKSPKSVLVIKKMRDASLLQPFKELCTHLMEENMIVYVEKKVLEDPAIASDESFGAVKKKFCTFREDYDDISNQIDFIICLGGDGTLLYASSLFQGSVPPVMAFHLGSLGFLTPFSFENFQSQVTQVIEGNAAVVLRSRLKVRVVKELRGKKTAVHNGLGENGSQAAGLDMDVGKQAMQYQVLNEVVIDRGPSSYLSNVDVYLDGHLITTVQGDGVIVSTPTGSTAYAAAAGASMIHPNVPAIMITPICPHSLSFRPIVVPAGVELKIMLSPEARNTAWVSFDGRKRQEIRHGDSISITTSCYPLPSICVRDPVSDWFESLAQCLHWNVRKKQAHFEEEEEEEEEG
B2: endogenous NADK (enzyme, UniProt O95544 1-446)
chain: B1 chain
B3: NADK TD1 (1-108, kinase-inhibiting domain) (domain or fragment, UniProt O95544 1-108)
chain: MEMEQEKMTMNKELSPDAAAYCCSACHGDETWSYNHPIRGRAKSRSLSASPALGSTKEFRRTRSLHGPCPVTTFGPKACVLQNPQTIMHIQDPASQRLTWNKSPKSVL

What was measured:
HA-Smurf1 = HA-Smurf1 (UniProt Q9HCE7); test: co-IP; HEK293T co-transfected with tagged NADK (full length or truncation) and Smurf1; lysed 36 h after transfection in IP lysis buffer (50 mM Tris-HCl pH 8.0, 150 mM NaCl, 1% NP-40); Flag-beads or HA-beads 3 h at 4 °C; washed in TBS; western blot
[1] = target: endogenous Smurf1 (human (endogenous in A549)) (UniProt Q9HCE7); test: co-IP; endogenous proteins in A549 lysate (IP lysis buffer); 2 ug NADK antibody or 2 ug Smurf1 antibody overnight at 4 °C, Protein A/G beads 2 h; washed in TBS; western blot

Binder | binding (HA-Smurf1) | binding [1]
B1 | binds | 
B2 |  | binds
B3 | binds | 
